Source: PubChem BioAssay AID330 (DTP/NCI, 2004)
The list does not hold the whole screen: its compounds were picked by chemical class. Not every dose and run of a compound is shown. T/C is the treated group as % of the vehicle group. Some entries give survivors of the animals treated and no T/C: the source holds a T/C of zero for them, seemingly a mark for toxic or unscored doses. Some doses without a T/C left all or most animals alive at the check, yet need not have been tolerated: the source hardly ever lists a survival T/C far under the control, and the zero likely stands for such cases as well. Counts of survivors are from the toxicity check (mostly the fifth day) where no day follows; animals may have died later. Schedule codes are those of the source, taken here to give the interval after Q, in days (D) or hours (H), and the number of doses after X. Some complexes appear as separate parts, the way the source draws them; their charges need not add up. For survival time, this PubChem deposit counts one and a half times the control or more as active, and values a quarter to a half above the control carry no call in these data; other NCI protocols may use other cut-offs. Some T/C values are marked as having no survivor count here; that says nothing about deaths at the dose. Some T/C values are followed by the survivors on the day toxicity was checked, most often the fifth; without a count or a note in brackets, all were alive then. Some entries were tested several times; the results are listed from low to high.

Tested on: P388 leukemia ip, CD2F1 mice, survival T/C
Test: NCI In Vivo Anticancer Drug Screen. Data for tumor model P388 Leukemia (intraperitoneal) in CD2F1 (CDF1) mice
Conditions: T/C endpoint: median survival time, higher T/C = longer survival
[1] = dose: 50.0 mg/kg/injection, schedule: Q01DX009 (ip), vehicle: saline
[2] = dose: 100.0 mg/kg/injection, schedule: Q01DX009 (ip), vehicle: saline
[3] = dose: 200.0 mg/kg/injection, schedule: Q01DX009 (ip), vehicle: saline
[4] = dose: 200.0 mg/kg/injection, schedule: Q04DX003 (ip), vehicle: saline with Tween-80
[5] = dose: 25.0 mg/kg/injection, schedule: Q01DX009 (ip), vehicle: saline

SMILES: C(Cc1nn[nH]n1)c1nn[nH]n1
- T/C (dose: 50.0 mg/kg/injection, schedule: Q01DX009 (ip), vehicle: Klucel (hydroxypropylcellulose) (HPC)): 115 % of control
- T/C (dose: 100.0 mg/kg/injection, schedule: Q01DX009 (ip), vehicle: Klucel (hydroxypropylcellulose) (HPC)): 98 % of control
- T/C (dose: 200.0 mg/kg/injection, schedule: Q01DX009 (ip), vehicle: Klucel (hydroxypropylcellulose) (HPC)): 112 % of control

SMILES: CC(C)([N+](=O)[O-])C(C)(C)[N+](=O)[O-]
- T/C (dose: 10.0 mg/kg/injection, schedule: Q01DX009 (ip), vehicle: saline with Tween-80): 100 % of control
- survivor count (dose: 20.0 mg/kg/injection, schedule: Q01DX009 (ip), vehicle: saline with Tween-80): 4 of 6
- survivor count (dose: 40.0 mg/kg/injection, schedule: Q01DX009 (ip), vehicle: saline with Tween-80): 0 of 6

SMILES: O=C(O)CCc1cccc(N(CCCl)CCCl)c1
- T/C (dose: 12.5 mg/kg/injection, schedule: Q04DX003 (ip), vehicle: saline with Tween-80): 91 % of control
- T/C (dose: 25.0 mg/kg/injection, schedule: Q04DX003 (ip), vehicle: saline with Tween-80): 137 % of control
- T/C [1]: 118 % of control
- T/C (dose: 50.0 mg/kg/injection, schedule: Q04DX003 (ip), vehicle: saline with Tween-80): 145 % of control
- T/C (dose: 66.0 mg/kg/injection, schedule: Q04DX003 (ip), vehicle: saline with Tween-80): 181 % of control [5 of 6 alive]
- T/C [2]: 109 % of control
- T/C (dose: 100.0 mg/kg/injection, schedule: Q04DX003 (ip), vehicle: saline with Tween-80): 104 [4 of 6 alive] and 131 % of control
- T/C (dose: 132.0 mg/kg/injection, schedule: Q04DX003 (ip), vehicle: saline with Tween-80): 200 % of control
- survivor count (dose: 150.0 mg/kg/injection, schedule: Q04DX003 (ip), vehicle: saline with Tween-80): 1 of 6
- T/C [3]: 140 % of control
- T/C [4]: 172 % of control
- survivor count [4]: 5 of 6
- survivor count (dose: 300.0 mg/kg/injection, schedule: Q04DX003 (ip), vehicle: saline with Tween-80): 3 of 6
- survivor count (dose: 400.0 mg/kg/injection, schedule: Q04DX003 (ip), vehicle: saline with Tween-80): 3 of 6

SMILES: O[C@H](CNCCCl)[C@@H](O)CNCCCl
- T/C (dose: 0.29 mg/kg/injection, schedule: Q01DX009 (ip), vehicle: saline): 122 % of control
- T/C (dose: 0.44 mg/kg/injection, schedule: Q01DX009 (ip), vehicle: saline): 127 % of control
- T/C (dose: 0.66 mg/kg/injection, schedule: Q01DX009 (ip), vehicle: saline): 136 % of control
- T/C (dose: 0.88 mg/kg/injection, schedule: Q04DX003 (ip), vehicle: saline): 119 % of control
- T/C (dose: 1.0 mg/kg/injection, schedule: Q01DX009 (ip), vehicle: saline): 150 % of control
- T/C (dose: 1.32 mg/kg/injection, schedule: Q04DX003 (ip), vehicle: saline): 121 % of control
- T/C (dose: 1.4 mg/kg/injection, schedule: Q01DX009 (ip), vehicle: saline): 168 % of control
- T/C (dose: 2.0 mg/kg/injection, schedule: Q04DX003 (ip), vehicle: saline): 119 % of control
- T/C (dose: 2.2 mg/kg/injection, schedule: Q01DX009 (ip), vehicle: saline): 172 % of control
- T/C (dose: 3.0 mg/kg/injection, schedule: Q04DX003 (ip), vehicle: saline): 140 % of control
- T/C (dose: 3.3 mg/kg/injection, schedule: Q01DX009 (ip), vehicle: saline): 190 % of control
- T/C (dose: 5.0 mg/kg/injection, schedule: Q01DX009 (ip), vehicle: saline): 200 % of control
- T/C (dose: 16.5 mg/kg/injection, schedule: Q01DX009 (ip), vehicle: saline): 225 % of control
- T/C [5]: 120 % of control
- T/C (dose: 37.5 mg/kg/injection, schedule: Q01DX009 (ip), vehicle: saline): 90 % of control

SMILES: CCOC(=O)NC(C)(CCC(C)(NC(=O)OCC)P(=O)(O)Nc1ncccn1)P(=O)(O)Nc1ncccn1 (stereo not given)
- T/C (dose: 60.0 mg/kg/injection, schedule: Q01DX005 (ip), vehicle: saline): 101 % of control
- T/C (dose: 120.0 mg/kg/injection, schedule: Q01DX005 (ip), vehicle: saline): 101 % of control
- T/C (dose: 240.0 mg/kg/injection, schedule: Q01DX005 (ip), vehicle: saline): 97 % of control

SMILES: C1=C[N-]c2c3c(ccc2=C1)=CC=C[N-]3.C1=C[N-]c2c3c(ccc2=C1)=CC=C[N-]3.F[P-](F)(F)(F)(F)F.[Cu+2]
- T/C (dose: 3.13 mg/kg/injection, schedule: Q04DX003 (ip), vehicle: Klucel (hydroxypropylcellulose) (HPC)): 96 % of control
- T/C (dose: 6.25 mg/kg/injection, schedule: Q04DX003 (ip), vehicle: Klucel (hydroxypropylcellulose) (HPC)): 99 % of control
- T/C (dose: 12.5 mg/kg/injection, schedule: Q04DX003 (ip), vehicle: Klucel (hydroxypropylcellulose) (HPC)): 101 and 106 % of control
- survivor count (dose: 25.0 mg/kg/injection, schedule: Q04DX003 (ip), vehicle: Klucel (hydroxypropylcellulose) (HPC)): 6 of 6
- survivor count (dose: 50.0 mg/kg/injection, schedule: Q04DX003 (ip), vehicle: Klucel (hydroxypropylcellulose) (HPC)): 0 of 6

SMILES: C1CN1.O=C(O)CCSCNc1ncnc2c1ncn2C1OC(COP(=O)(O)OP(=O)(O)OP(=O)(O)O)C(O)C1O (stereo not given)
- T/C (dose: 5.0 mg/kg/injection, schedule: Q04DX002 (ip), vehicle: saline): 106 % of control
- T/C (dose: 10.0 mg/kg/injection, schedule: Q04DX002 (ip), vehicle: saline): 118 % of control [5 of 6 alive]
- T/C (dose: 20.0 mg/kg/injection, schedule: Q04DX002 (ip), vehicle: saline): 109 % of control [5 of 6 alive]
- survivor count (dose: 100.0 mg/kg/injection, schedule: Q04DX002 (ip), vehicle: saline): 0 of 6
- survivor count (dose: 200.0 mg/kg/injection, schedule: Q04DX002 (ip), vehicle: saline): 0 of 6
- survivor count (dose: 400.0 mg/kg/injection, schedule: Q04DX002 (ip), vehicle: saline): 0 of 6

SMILES: CCOP1OCC(CC)CO1 (stereo not given)
- T/C (dose: 100.0 mg/kg/injection, schedule: Q04DX002 (ip), vehicle: saline with Tween-80): 113 % of control
- T/C (dose: 200.0 mg/kg/injection, schedule: Q04DX002 (ip), vehicle: saline with Tween-80): 88 % of control
- T/C (dose: 400.0 mg/kg/injection, schedule: Q04DX002 (ip), vehicle: saline with Tween-80): 110 % of control

SMILES: CC(C)N(CCCl)/N=N/c1nc2nc[nH]c(=O)c2[nH]1
- T/C (dose: 50.0 mg/kg/injection, schedule: Q01DX005 (ip), vehicle: Klucel (hydroxypropylcellulose) (HPC)): 100 % of control
- T/C (dose: 100.0 mg/kg/injection, schedule: Q01DX005 (ip), vehicle: Klucel (hydroxypropylcellulose) (HPC)): 100 % of control
- T/C (dose: 200.0 mg/kg/injection, schedule: Q01DX005 (ip), vehicle: Klucel (hydroxypropylcellulose) (HPC)): 100 % of control

SMILES: CC(C)c1nc([N+](=O)[O-])cn1P(=O)(Oc1ccccc1)OC1CC(C)(C)N(O)C(C)(C)C1 (stereo not given)
- T/C (dose: 25.0 mg/kg/injection, schedule: Q01DX009 (ip), vehicle: saline + alcohol): 100 % of control
- T/C (dose: 50.0 mg/kg/injection, schedule: Q01DX009 (ip), vehicle: saline + alcohol): 100 % of control
- T/C (dose: 100.0 mg/kg/injection, schedule: Q01DX009 (ip), vehicle: saline + alcohol): 105 % of control

SMILES: COP(C)(=O)OC.COP(C)(=O)OC.COP(C)(=O)OC.COP(C)(=O)OC.COP(C)(=O)OC.COP(C)(=O)OC.[Fe+3].[O-][Cl+3]([O-])([O-])O
- T/C (dose: 50.0 mg/kg/injection, schedule: Q01DX009 (ip), vehicle: saline with Tween-80): 91 % of control [survivor count not shown]
- T/C (dose: 100.0 mg/kg/injection, schedule: Q01DX009 (ip), vehicle: saline with Tween-80): 113 % of control [survivor count not shown]
- T/C (dose: 200.0 mg/kg/injection, schedule: Q01DX009 (ip), vehicle: saline with Tween-80): 89 % of control [survivor count not shown]

SMILES: CC(Cl)CSC(=O)SC(Cl)C(Cl)Cl (stereo not given)
- T/C [1]: 97 % of control [5 of 6 alive]
- T/C [2]: 98 % of control
- T/C [3]: 97 % of control [5 of 6 alive]

SMILES: [N-]=[N+]=NC(N)=O
- T/C (dose: 6.25 mg/kg/injection, schedule: Q01DX009 (ip), vehicle: saline): 114 % of control
- T/C (dose: 12.5 mg/kg/injection, schedule: Q01DX009 (ip), vehicle: saline): 112 % of control
- survivor count [5]: 1 of 6
- survivor count [1]: 0 of 6
- survivor count [2]: 0 of 6
- survivor count [3]: 0 of 6
